# Measurements: PubChem BioAssay AID540256 (National Center for Advancing Translational Sciences (NCATS), 2011)
# The campaign covered roughly 300,000 compounds. About 3,700 (1.2%) were called active. The shares of active, inactive and inconclusive entries below differ from those in the screen. Calls follow the shape of the full dose curve; tested in HEK293 cells. A potency beside an inconclusive call is a rough fit, not a confirmed value.
# Experiment: qHTS for Inhibitors of binding or entry into cells for Lassa Virus; also: nearly all actives have a fitted effect of over 50% in size
# Conditions: Lassa virus pseudotype entry inhibition, cell reporter; activity change, negative = inhibition: at 37.9 µM (top of the series) unless noted
# % is scaled to controls: 0 for no effect and ±100 for the full control effect; potency is read from the fitted curve at half-maximal effect.
SMILES,"activity change, negative = inhibition",Potency
CCN1CCN(c2ccc(NS(=O)(=O)c3c(C)nc4sccn4c3=O)cc2Cl)CC1,inactive: -25.2% [at 46.1 µM],–
CC(=O)Nc1ccc(NC(=O)c2sc(-c3ccccc3)nc2C)cc1,–,"inconclusive: 7.08 µM [inhibitor, partial curve, poor fit]"
CCOC(=O)c1ccc(NC(=O)C2CC3CCC2C3)cc1 (stereo not drawn),–,"inconclusive: 14.1 µM [inhibitor, single point]"
COc1ccc(-c2nc(Cn3c(SCc4ccc(C)cc4)nc4cccnc43)c(C)o2)cc1OC,–,"inconclusive: 35.5 µM [inhibitor, single point]"
CC(=O)Oc1ccc2occ(C(=O)c3ccccc3)c2c1,inactive: 5.97% [at 46.1 µM],–
CC(C)c1ccc(-n2c(O)c(/C=N/NC(=O)c3ccccc3O)c(=O)[nH]c2=S)cc1,inactive: -17.7% [at 46.1 µM],–
C#CCOc1c(Cl)cc(/C=N/NC(N)=S)cc1OCC,–,"inconclusive: 10 µM [inhibitor, partial curve, poor fit]"
COc1cccc(CNC(=O)Cn2ncn3nc(-c4cccs4)cc3c2=O)c1OC,inactive: -28.5% [at 46.1 µM],–
COCCCNCC(O)COc1cccc2[nH]c(C)cc12 (stereo not drawn),inactive: 5.66% [at 46.1 µM],–
COc1ccc2c(c1)C(=O)[C@@H](O)[C@H](c1ccc(OC)c(Br)c1)O2,–,"inconclusive: 29.1 µM [inhibitor, single point]"
COc1ccc(-n2nc(C(=O)N3CCN(c4cccc(C)c4C)CC3)c3c4ccccc4n(C)c3c2=O)cc1Cl,inactive: 16.6% [at 46.1 µM],–
O=C(c1ccc(-c2cccc(Cl)c2Cl)o1)N1CCOCC1,–,"inconclusive: 0.562 µM [activator, full curve, poor fit]"
Cc1nc([N+](=O)[O-])cn1CC(=O)c1ccc(F)cc1,inactive: 12.1%,–
Cc1ccsc1C(=O)N1CCC(CO)(Cc2ccccc2)CC1,inactive: -25.8% [at 46.1 µM],–
C=CCn1c(O)c(/C(C)=N/NC(=S)Nc2ccccc2)c(=O)[nH]c1=O,inactive: -7.3%,–
CCCCn1c(N)c(N(CCOC)C(=O)C2CCN(S(=O)(=O)c3ccc(C)c(C)c3)CC2)c(=O)[nH]c1=O,inactive: -3.8%,–
COc1ccc(/C=C/C(=O)NC(=S)Nc2ccc(C(=O)O)cc2)cc1,inactive: 11.9%,–
CCOC(=O)c1ccc(NC(=S)N2CCC(O)CC2)cc1,inactive: 6.19%,–
Cc1csc(NC(=O)NC2(C(F)(F)F)Oc3ccccc3O2)n1,–,"inconclusive: 16.4 µM [inhibitor, partial curve, poor fit]"
CCOCCCNC(=O)c1cnc2sc(N3CCCCC3)nn2c1=O,inactive: -2.85% [at 46.1 µM],–
O=c1c2ccc(Cl)cc2[nH]c(=S)n1-c1cccnc1,–,"inconclusive: 2.82 µM [inhibitor, single point]"
COC(=O)c1ccc(CSc2nnc(NC(C)C)s2)cc1,–,"inconclusive: 8.91 µM [inhibitor, partial curve, poor fit]"
O=C(O)CCCn1cc(NC(=O)COc2cccc(Cl)c2)cn1,–,"inconclusive: 3.16 µM [inhibitor, full curve, poor fit]"
O=C(NCc1ccco1)c1csc(Nc2ccccc2Cl)n1,–,"inconclusive: 9.2 µM [inhibitor, single point]"

SMILES,"activity change, negative = inhibition",Potency
COc1ccc(N(C)S(=O)(=O)c2cccc(C(=O)Nc3nc4ccccc4[nH]3)c2)cc1,–,"inconclusive: 14.1 µM [inhibitor, single point]"
CCCn1c(C)cc(C(=O)COC(=O)c2ccc[nH]c2=O)c1C,–,"inconclusive: 0.891 µM [activator, single point]"
CC(C)CCNc1nc2c(c(=O)n(Cc3cccc(F)c3)c(=O)n2C)n1C,inactive: -6.42%,–
COc1ccc(OC(=O)c2cn(C)nc2C(F)(F)F)cc1,inactive: -10.2%,–
O=C(CCl)Nc1ccc(S(=O)(=O)NC2=NCCCCC2)cc1,–,"inconclusive: 17.8 µM [inhibitor, single point]"
O=C(Nc1nc2ccccc2[nH]1)Nc1ccccc1F,inactive: -22.4% [at 46.1 µM],–
CSCCC(NS(=O)(=O)c1ccccc1F)C(=O)NCc1ccncc1 (stereo not drawn),inactive: -1.2%,–
CCn1c2ccccc2c2cc(NC(=O)COc3ccccc3OC)ccc21,–,"inconclusive: 25.9 µM [inhibitor, partial curve, poor fit]"
CCN(CCO)C(=O)c1ccc2nc(Cc3cccc(Cl)c3)oc2c1,–,"inconclusive: 11.2 µM [inhibitor, partial curve, poor fit]"
CC(C)c1ccc(NC(=O)NC2CCCCC2)cc1,–,"inconclusive: 13 µM [inhibitor, partial curve, poor fit]"
COc1ccccc1C(=O)Nc1ccc2c(C)cc(=O)oc2c1,–,"inconclusive: 6.31 µM [activator, partial curve, poor fit]"
Cc1c(C#N)c2ccccc2n1CC(=O)N1CCCc2ccccc21,inactive: -17.3%,–
ClCCN(CCCl)c1ccc(C2=NCCc3ccccc32)cc1,–,"inconclusive: 15.8 µM [inhibitor, single point]"
O=C(NCc1cccnc1)C(=O)NCC(c1ccco1)N1CCN(c2ccc(F)cc2)CC1 (stereo not drawn),–,"inconclusive: 2.24 µM [inhibitor, full curve, poor fit]"
Cn1nc(C(=O)N2CCCC2)c2ccccc2c1=O,inactive: -9.35%,–
CCc1ccc(-c2nc(C)c(CCO)c(=O)[nH]2)cc1,–,"inconclusive: 2.82 µM [activator, full curve, poor fit]"
O=c1c2ccccc2sn1-c1cc(S(=O)(=O)N2CCOCC2)ccc1N1CCOCC1,–,"inconclusive: 5.17 µM [inhibitor, partial curve, poor fit]"
O=C(N/N=C1\CC(c2ccccc2)Oc2ccccc21)c1ccccn1 (stereo not drawn),inactive: -11.4%,–
COc1cc(C2c3cc4c(cc3OC(N3CCCCC3)C2C)OCO4)cc(OC)c1O (stereo not drawn),–,"inconclusive: 4.47 µM [inhibitor, full curve, poor fit]"
CCOC(=O)c1cc2[nH]c3ccccc3c2[n+](-c2ccc([N+](=O)[O-])cc2)c1N,inactive: -8.91%,–
COc1cccc(NC(=O)CN(C)C(C)C(=O)Nc2ccc(S(=O)(=O)N3CCCC3)cc2)c1 (stereo not drawn),inactive: -5.34%,–
COc1ccc(C(=O)NC(=S)NNC(=O)c2ccc(NC(=O)C(C)C)cc2)cc1,–,"inconclusive: 3.98 µM [inhibitor, single point]"
Fc1ccccc1Cc1cn2cc(-c3ccc(Cl)cc3)nc2s1,inactive: -3.56% [at 46.1 µM],–
COc1ccccc1CNC(=O)N/C=C/c1ccc(Cl)cc1,–,"inconclusive: 11.2 µM [inhibitor, partial curve, poor fit]"

# Two records picked at random from those above:
SMILES,"activity change, negative = inhibition",Potency
CCn1c2ccccc2c2cc(NC(=O)COc3ccccc3OC)ccc21,–,"inconclusive: 25.9 µM [inhibitor, partial curve, poor fit]"
CC(C)CCNc1nc2c(c(=O)n(Cc3cccc(F)c3)c(=O)n2C)n1C,inactive: -6.42%,–
